Measurements: paper PMC2660419
These are yes or no findings as the source states them, for the method shown. Binding seen in cells or lysates may run through a third protein. Some entries that bind do so weakly or less than the wild type. Tags and fused reporters may be left off the sequences shown.

Protein sequences, listed by entry. Tags and fused reporters are not part of them.
UniProt Q01105: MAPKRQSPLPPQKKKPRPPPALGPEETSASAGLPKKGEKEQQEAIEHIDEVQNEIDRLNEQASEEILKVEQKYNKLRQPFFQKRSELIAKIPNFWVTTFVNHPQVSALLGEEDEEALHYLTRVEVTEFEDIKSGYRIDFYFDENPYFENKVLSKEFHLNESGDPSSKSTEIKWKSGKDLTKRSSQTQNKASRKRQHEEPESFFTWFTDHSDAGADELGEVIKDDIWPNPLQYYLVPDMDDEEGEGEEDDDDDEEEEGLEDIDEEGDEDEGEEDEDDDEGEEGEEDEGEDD
UniProt Q13547: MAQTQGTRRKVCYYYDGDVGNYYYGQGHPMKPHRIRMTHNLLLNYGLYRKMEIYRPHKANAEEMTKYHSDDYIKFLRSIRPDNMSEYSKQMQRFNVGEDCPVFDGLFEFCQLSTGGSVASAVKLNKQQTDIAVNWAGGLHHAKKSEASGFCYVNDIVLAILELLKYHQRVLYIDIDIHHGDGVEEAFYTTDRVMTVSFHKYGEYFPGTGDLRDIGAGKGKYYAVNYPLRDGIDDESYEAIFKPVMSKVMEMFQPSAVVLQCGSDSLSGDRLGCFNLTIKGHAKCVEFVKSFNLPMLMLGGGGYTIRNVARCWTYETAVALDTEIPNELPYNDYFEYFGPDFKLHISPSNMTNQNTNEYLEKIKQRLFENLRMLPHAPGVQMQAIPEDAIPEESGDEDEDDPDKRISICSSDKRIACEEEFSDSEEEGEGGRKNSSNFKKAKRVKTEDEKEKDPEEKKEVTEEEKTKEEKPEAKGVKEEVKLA
UniProt Q92769: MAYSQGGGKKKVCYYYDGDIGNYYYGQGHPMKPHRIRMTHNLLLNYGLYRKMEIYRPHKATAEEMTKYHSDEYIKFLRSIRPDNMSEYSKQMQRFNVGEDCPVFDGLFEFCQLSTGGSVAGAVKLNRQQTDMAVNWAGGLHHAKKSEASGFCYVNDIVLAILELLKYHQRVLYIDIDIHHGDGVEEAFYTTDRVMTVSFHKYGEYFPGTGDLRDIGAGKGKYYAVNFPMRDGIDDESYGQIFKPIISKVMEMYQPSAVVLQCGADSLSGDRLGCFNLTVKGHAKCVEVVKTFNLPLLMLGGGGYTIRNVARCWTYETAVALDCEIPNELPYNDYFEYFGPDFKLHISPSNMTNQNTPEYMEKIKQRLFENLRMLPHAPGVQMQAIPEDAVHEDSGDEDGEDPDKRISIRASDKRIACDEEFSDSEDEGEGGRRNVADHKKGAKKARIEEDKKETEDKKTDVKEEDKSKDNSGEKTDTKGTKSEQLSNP

Experiments:
[1] = molecular target: T1, FLAG-tagged rat FE65 (rat) (UniProt P46933); assay: co-IP; data not shown; V5-SET and FLAG-FE65 co-transfected into H4 cells; IP with anti-FLAG agarose (anti-myc agarose as negative control), blot with anti-V5
T1 sequence: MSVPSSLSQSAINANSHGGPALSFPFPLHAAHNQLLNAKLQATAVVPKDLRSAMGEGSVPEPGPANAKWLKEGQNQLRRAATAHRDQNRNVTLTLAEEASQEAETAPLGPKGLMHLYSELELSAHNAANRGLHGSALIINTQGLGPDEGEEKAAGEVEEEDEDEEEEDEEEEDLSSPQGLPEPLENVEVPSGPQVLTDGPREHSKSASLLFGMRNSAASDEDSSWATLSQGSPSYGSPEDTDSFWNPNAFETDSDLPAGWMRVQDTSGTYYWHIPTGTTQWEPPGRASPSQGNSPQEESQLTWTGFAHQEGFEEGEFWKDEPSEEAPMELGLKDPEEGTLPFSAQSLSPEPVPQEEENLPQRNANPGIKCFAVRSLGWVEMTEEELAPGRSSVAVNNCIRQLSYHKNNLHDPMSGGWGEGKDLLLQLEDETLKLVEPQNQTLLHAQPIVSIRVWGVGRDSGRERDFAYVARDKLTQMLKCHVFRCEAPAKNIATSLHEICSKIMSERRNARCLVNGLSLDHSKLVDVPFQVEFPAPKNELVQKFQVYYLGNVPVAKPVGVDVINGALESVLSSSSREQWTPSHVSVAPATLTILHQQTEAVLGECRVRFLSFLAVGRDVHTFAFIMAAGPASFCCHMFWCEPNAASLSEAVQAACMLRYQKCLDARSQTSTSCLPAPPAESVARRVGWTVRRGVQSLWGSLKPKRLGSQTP

[2] = molecular target: T2, myc-tagged full-length human Teashirt3 (human) (UniProt Q63HK5); assay: co-IP; H4 cells transfected with myc-tagged Teashirt3 constructs; IP with 9E10 anti-myc and protein G agarose (PBS, 0.5% Triton X-100); blots with anti-HDAC1, HDAC2, HDAC3 or HDAC4 antibodies for endogenous HDACs
T2 sequence: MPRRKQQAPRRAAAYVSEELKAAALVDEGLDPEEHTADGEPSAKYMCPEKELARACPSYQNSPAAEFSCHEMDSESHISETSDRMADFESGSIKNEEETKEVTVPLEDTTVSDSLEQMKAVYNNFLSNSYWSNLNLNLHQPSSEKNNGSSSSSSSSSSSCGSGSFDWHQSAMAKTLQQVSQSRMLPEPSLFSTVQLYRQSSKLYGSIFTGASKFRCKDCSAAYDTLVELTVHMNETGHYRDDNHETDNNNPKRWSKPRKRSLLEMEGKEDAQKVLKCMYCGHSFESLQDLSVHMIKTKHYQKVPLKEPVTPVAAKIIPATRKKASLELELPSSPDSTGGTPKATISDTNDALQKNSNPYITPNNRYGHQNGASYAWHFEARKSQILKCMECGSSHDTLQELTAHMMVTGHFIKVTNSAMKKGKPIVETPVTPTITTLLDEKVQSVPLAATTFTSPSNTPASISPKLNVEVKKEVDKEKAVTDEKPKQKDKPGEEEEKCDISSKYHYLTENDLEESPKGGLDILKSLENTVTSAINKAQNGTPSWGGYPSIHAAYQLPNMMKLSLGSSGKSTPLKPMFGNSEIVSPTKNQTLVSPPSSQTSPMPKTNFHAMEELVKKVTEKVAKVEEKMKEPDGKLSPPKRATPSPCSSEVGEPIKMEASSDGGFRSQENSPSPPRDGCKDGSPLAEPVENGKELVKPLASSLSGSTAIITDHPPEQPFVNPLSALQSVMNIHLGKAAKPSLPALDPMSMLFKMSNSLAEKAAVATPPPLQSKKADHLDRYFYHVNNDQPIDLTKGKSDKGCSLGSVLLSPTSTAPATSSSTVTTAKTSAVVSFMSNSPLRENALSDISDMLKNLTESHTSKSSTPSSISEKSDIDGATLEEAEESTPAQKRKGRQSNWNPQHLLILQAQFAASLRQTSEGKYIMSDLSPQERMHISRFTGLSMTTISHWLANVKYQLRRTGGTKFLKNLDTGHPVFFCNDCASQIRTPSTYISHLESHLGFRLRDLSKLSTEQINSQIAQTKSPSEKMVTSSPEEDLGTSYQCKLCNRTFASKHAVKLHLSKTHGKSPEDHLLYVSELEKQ

## V5-tagged SET (from UniProt Q01105 1-290)
[1]
  binding: binds

## endogenous HDAC1 of H4 cells (from UniProt Q13547 1-482) (enzyme)
[2]
  binding: binds

## endogenous HDAC2 of H4 cells (from UniProt Q92769 1-488) (enzyme)
[2]
  binding: binds
